# B1: FGF-23(180-251): synthetic FGF-23 fragment, residues 180-251, SEQ ID NO: 3 (peptide, listed as Homo sapiens)
# chain: SAEDDSERDPLNVLKPRARMTPAPASCSQELPSAEDNSPMASDPLGVVRGGRVNTHAGGTGPEGCRPFAKFI
# B2: FGF-23(176-251): synthetic FGF-23 fragment, residues 176-251, SEQ ID NO: 2 (peptide, listed as Homo sapiens)
# chain: RHTRSAEDDSERDPLNVLKPRARMTPAPASCSQELPSAEDNSPMASDPLGVVRGGRVNTHAGGTGPEGCRPFAKFI
# B3: FGF-23(184-251): synthetic FGF-23 fragment, residues 184-251, SEQ ID NO: 4 (peptide, listed as Homo sapiens)
# chain: DSERDPLNVLKPRARMTPAPASCSQELPSAEDNSPMASDPLGVVRGGRVNTHAGGTGPEGCRPFAKFI
# B4: FGF-23(25-251): full-length recombinant human FGF-23(25-251) polypeptide expressed in E. coli, SEQ ID NO: 1 (protein, listed as Homo sapiens)
# chain: YPNASPLLGSSWGGLIHLYTATARNSYHLQIHKNGHVDGAPHQTIYSALMIRSEDAGFVVITGVMSRRYLCMDFRGNIFGSHYFDPENCRFQHQTLENGYDVYHSPQYHFLVSLGRAKRAFLPGMNPPPYSQFLSRRNEIPLIHFNTPIPRRHTRSAEDDSERDPLNVLKPRARMTPAPASCSQELPSAEDNSPMASDPLGVVRGGRVNTHAGGTGPEGCRPFAKFI
# Test system: normal rats
# Assay: Acute intravenous infusion of equimolar FGF-23 polypeptides in anesthetized rats, renal clearance
# Assay type: in vivo, rat
# Details: E = experimental clearance, i.v. infusion 1.24 nmol/kg/hour; mean ± SE
# Procedure: Male Sprague Dawley rats weighing 300 g were purchased from Harlan Sprague Dawley Inc. (Madison Wis.). They were fed a standard rodent diet containing 0.7% phosphate and 0.5% calcium. All animals were fasted overnight prior to the experiment. On the day of the experiment, rats were anesthetized with an intraperitoneal injection of 100-150 mg/kg body weight of 5-sec-butyl-ethyl-2-thiobarbituricacid (Inactin, Byk Gulden Konstanz, Hamburg, Germany). The rats were placed on a heated table to maintain body temperature between 36-38° C. After a tracheostomy, a PE 50 catheter was placed in the left carotid artery to monitor mean arterial blood pressure (MAP) and to collect blood samples. Catheters were also placed in the left and right jugular veins for infusions. A solution containing 2% inulin in 0.9% NaCl plus 4.5% BSA was infused at a rate of 1.2 mL/hour in one catheter, and 0.9% NaCl was infused in the other catheter at a rate of 1.2 mL/hour. A catheter (PE 90) was placed in the bladder for urine collection. Acute infusion studies were performed using the following seven different groups of animals.
# Group 1: Vehicle Time control (n=8). After a ninety-minute recovery period, one […] urine sample was taken (C1) and a blood sample was taken. One hour later a second 60-minute clearance was taken (C2).
# Group 2: Effect of acute infusion of full length FGF-23 polypeptide (1.24 nmol/kg/hour, n=8). This protocol is identical to group 1 except that after the control collections, full-length recombinant FGF-23 polypeptide was added to the 0.9% saline infusion to deliver 1.24 nmol/kg/hour of full length FGF-23 polypeptide. After one hour of infusion, a sixty-minute clearance was taken.
# Group 3: Effect of acute infusion of FGF-23(176-251) polypeptide (1.24 nmol/kg/hour, n=8). This protocol is identical to group 2 except for the sequence of the infused polypeptide.
# Group 4: Effect of acute infusion of FGF-23(180-251) polypeptide (1.24 nmol/kg/hour, n=8). This protocol is identical to group 2 except for the sequence of the infused polypeptide.
# Group 5: Effect of infusion of FGF-23(184-251) polypeptide (1.24 nmol/kg/hour, n=8). This protocol is identical to group 2 except for the sequence of the infused polypeptide.
# Group 6: Effect of infusion of FGF-23(206-251) polypeptide (1.24 nmol/kg/hour, n=6). This protocol is identical to group 2 except for the sequence of the infused polypeptide.
# Group 7: Effect of infusion of FGF-23(180-205) polypeptide (1.24 nmol/kg/hour, n=6). This protocol is identical to group 2 except for the sequence of the infused polypeptide.
# Plasma and urine phosphate concentrations were determined using the method of Chen (Chen et al., Anal Chem., 28:1756-1758 (1956)). Inulin concentrations in plasma and urine were determined using the anthrone method (Führ et al., Klin. Wochenschr., 33.:729-730 (1955)). Sodium concentrations in urine were determined by ion selective electrode (EasyLyte Plus Analyzer, Medica Corp., Bedford, Mass.). Calcium concentrations were measured using atomic absorption spectrometry (Kumar et al., Biochemistry, 15:2420-2423 (1976)) with a Perkin Elmer Model 3300 Atomic Absorption Spectrometer (Perkin Elmer, Boston, Mass.). Serum 1α,25(OH)2D concentrations were measured using an RIA kit (Diasorin, Stillwater, Minn.).
# Statistically significant differences between groups were evaluated by Student's t-test for comparison between two groups or by one-way analysis of variance (ANOVA) followed by Tukey's test for multiple comparisons. All values were expressed as mean±SE. A p value less than 0.05 was considered to be statistically significant.
row,Molecule,"GFR (glomerular filtration rate), experimental clearance [mL/min]"
1,"FGF-23(180-205): synthetic FGF-23 fragment, residues 180-205, SAEDDSERDPLNVLKPRARMTPAPAS, SEQ ID NO: 6 (listed as Homo sapiens)",4.5 ± 0.3
2,"FGF-23(206-251): synthetic FGF-23 fragment, residues 206-251, SEQ ID NO: 5 (CSQELPSAEDNSPMASDPLGVVRGGRVNTHAGGTGPEGCRPFAKFI; listed as Homo sapiens)",3.1 ± 0.2
3,B1,4.2 ± 0.4
4,B2,3.1 ± 0.4
5,B3,4.3 ± 0.3
6,B4,3.3 ± 0.5

# Reference: patent US20100062984A1, “FGF-23 POLYPEPTIDES” (priority 2007, published 2010)
